# From patent US20150072933A1, “NOVEL SEQUENCES FOR THE CONTROL OF REPRODUCTION IN FISH” (Yissum Research Development Company of the Hebrew …, priority 2011, published 2015)
# No constants are given. Whether binding was seen depends on the method and setting. Some entries that bind do so weakly or less than the wild type.
# T1: zebrafish Tac3ra (tac3 receptor a, NKB receptor) (zebrafish)
# T1 sequence: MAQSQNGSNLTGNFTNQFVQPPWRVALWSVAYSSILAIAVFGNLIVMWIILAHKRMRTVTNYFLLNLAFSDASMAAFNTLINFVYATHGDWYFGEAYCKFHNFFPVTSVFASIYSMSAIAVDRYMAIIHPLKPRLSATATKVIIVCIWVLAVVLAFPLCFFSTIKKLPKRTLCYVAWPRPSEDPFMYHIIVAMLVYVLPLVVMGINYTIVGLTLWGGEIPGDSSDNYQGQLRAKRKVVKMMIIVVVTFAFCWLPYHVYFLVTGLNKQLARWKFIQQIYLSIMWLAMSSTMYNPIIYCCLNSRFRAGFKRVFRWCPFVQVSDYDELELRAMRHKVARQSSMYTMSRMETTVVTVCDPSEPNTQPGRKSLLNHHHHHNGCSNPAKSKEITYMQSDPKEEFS
# T2: zebrafish Tac3rb (tac3 receptor b, NKB receptor) (zebrafish)
# T2 sequence: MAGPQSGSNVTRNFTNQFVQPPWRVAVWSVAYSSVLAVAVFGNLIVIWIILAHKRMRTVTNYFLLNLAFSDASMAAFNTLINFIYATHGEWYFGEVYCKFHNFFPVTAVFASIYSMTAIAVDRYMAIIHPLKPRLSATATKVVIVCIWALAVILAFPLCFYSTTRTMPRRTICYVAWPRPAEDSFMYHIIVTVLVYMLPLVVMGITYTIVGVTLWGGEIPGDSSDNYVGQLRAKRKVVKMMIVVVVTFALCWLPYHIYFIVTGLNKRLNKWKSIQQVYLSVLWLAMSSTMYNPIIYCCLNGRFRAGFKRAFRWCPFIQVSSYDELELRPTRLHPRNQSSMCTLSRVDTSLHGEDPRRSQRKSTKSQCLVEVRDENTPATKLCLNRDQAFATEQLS
# B1: Zebrafish Tac3b peptide, neurokinin Bb (…-NH2) (peptide)
# peptide: STGINREAHLPFRPNMNDIFVGLL
# modifications: C-terminal amide (-NH2)
# Columns and labels:
# [1] = molecular target: T1, zebrafish Tac3ra (tac3 receptor a, NKB receptor) (zebrafish); test: inferred from SRE-Luc/CRE-Luc transactivation in receptor-transfected COS-7 cells
# [2] = molecular target: T2, zebrafish Tac3rb (tac3 receptor b, NKB receptor) (zebrafish); test: as above
binder,measurement,setting,value
B1,binding,[1],binds
same,binding,[2],binds
